Assay results reported in patent US20060128014A1, “Compositions and methods for culturing stem cells” (priority 2002, published 2006).
At least one structure is not confirmed: it was looked up by name or label, or the drawing left a doubt.

Tested on: adult derived neural stem cells
Assay: Proliferation of adult derived neural stem cells by increased cAMP (unpublished results)
Type: cell-based
Settings: increased levels of cAMP

## C=C[C@@]1(C)CC(=O)[C@]2(O)[C@@]3(C)[C@@H](O)CCC(C)(C)[C@@H]3[C@H](O)[C@H](OC(C)=O)[C@@]2(C)O1 [forskolin]
  proliferation: trigger proliferation
